Source: PubChem BioAssay AID1347076 (National Center for Advancing Translational Sciences (NCATS), 2019)
Hit rate of the full screen: of about 400,000 compounds, about 13,000 (3.2%) were called active. Inconclusive means that the source gave no clear call. Such entries were picked first, then a sample of the others. The call rests on the fitted dose curve; in most records, active means well fitted cell-killing curve with a large enough effect; inconclusive means small, poorly fitted or top-dose-only effect, or effect the other way; inactive means flat fitted curve, though single readings scatter. Potencies of inconclusive entries are doubtful fits and often do not repeat.

Assay: qHTS assay for MDR1-selective chemotherapeutics: Primary screen using the drug-selected MDR subline cells KB-V1; further: nearly all actives have a fitted effect of over 60% in size
Conditions: KB-V1 MDR cells viability, CellTiter-Glo, 72 h; activity change, negative = cytotoxicity: at 46.1 µM (top of the series)
Method in brief: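 KB-V1 cells (P-gp-expressing MDR subline of KB-3-1) in phenol-red-free DMEM with 10% FBS were exposed to library compounds over a concentration series for 72 h at 37 degrees C. Viability read by CellTiter-Glo luminescence; concentration-effect curves fitted after normalization.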
On the % scale 0 is the no-effect control and ±100 the full control effect; potency means the concentration at half of the fitted maximal effect.

| Structure (SMILES) | Potency | activity change, negative = cytotoxicity |
| --- | --- | --- |
| CC(Sc1ccc2ccccc2n1)C(=O)O (stereo unspecified) | inconclusive: 7.31 µM [rising, partial curve, poor fit] | – |
| O=C(Cn1ncc2c(=O)oc3ccccc3c21)N1CCN(C(=O)c2ccco2)CC1 | inconclusive: 13 µM [rising, partial curve, poor fit] | – |
| C=CCOc1ccc(C(=O)c2ccccc2)c(OCC(=O)NC2(C#N)CCCC2)c1 | inconclusive: 4.61 µM [cytotoxic, partial curve] | – |
| Cc1c(Cl)cccc1-n1ncc(C(=O)N2CCc3ccccc3C2)c1C1CCN(C(=O)OC(C)(C)C)CC1 | inconclusive: 20.6 µM [cytotoxic, single point] | – |
| COc1ccc(CN(C)C[C@H]2OCCCC[C@H](C)Oc3ccc(NC(=O)CCC(F)(F)F)cc3C(=O)N([C@@H](C)CO)C[C@@H]2C)cc1 | inconclusive: 18.4 µM [rising, single point] | – |
| CCN(CC)c1ccc(-c2nn3c(-c4n[nH]c5c4CCC5)nnc3s2)cc1 | inconclusive: 0.517 µM [cytotoxic, full curve, poor fit] | – |
| Nc1c(C(=O)N2CCCCC2)sc(=S)n1-c1ccccc1 | active: 18.4 µM | – |
| Cc1cccc(NC(=O)c2ncn3c2C(=O)N(C)CC3)c1 | – | inactive: 0.693% |
| CCCCCC(=O)O[C@]1(C(C)=O)CC[C@H]2[C@@H]3CCC4=CC(=O)CC[C@]4(C)[C@H]3CC[C@@]21C | inconclusive: 20.6 µM [cytotoxic, partial curve] | – |
| COc1cc(Cl)c(C)cc1NC(=O)Cc1ccc(OC)c(OC)c1 | inconclusive: 13 µM [cytotoxic, partial curve] | – |
| O=C(NCc1ccc(F)cc1)C1CCCN(S(=O)(=O)c2ccc(Br)s2)C1 (stereo unspecified) | inconclusive: 20.6 µM [cytotoxic, single point] | – |
| CCCN(CC(=O)Nc1ccccc1C)C(=O)COc1c(Cl)cccc1Cl | active: 5.8 µM | – |
| Oc1cc2c(cc1O)CN(C(=S)NCCc1ccc(Cl)cc1)CCC2 | active: 14.6 µM | – |
| O=C(Nc1nc2ccccc2s1)C1c2ccccc2Oc2ccccc21 | active: 18.4 µM | – |
| Cc1ccc(Cn2nc(C)c(NC(=O)c3cc(-c4ccc5c(c4)OCO5)on3)c2C)cc1 | – | inactive: 11.3% |
| O=C(CN1C(=O)c2ccccc2C1=O)N1CCN(c2nnc(-c3ccccc3)c3ccccc23)CC1 | inconclusive: 6.51 µM [cytotoxic, partial curve] | – |
| Cc1cccc(NC(=O)CSc2nc3ccccc3c(=O)n2C)c1C | inconclusive: 3.26 µM [cytotoxic, full curve, poor fit] | – |
| CCCCC(=O)Nc1ccc(NC(=O)c2ccccc2[N+](=O)[O-])cc1OC | – | inactive: -34.6% |
| COc1ccc(C2C(C(=O)Nc3ccccc3OC)=C(C)Nc3ncnn32)cc1 (stereo unspecified) | – | inactive: 7.02% |
| CC1(C(=O)Nc2ccc3c(c2)OCO3)CCN1C(=O)C1CCCCC1 (stereo unspecified) | inconclusive: 20.6 µM [cytotoxic, single point] | – |
| COc1ccccc1NC(=O)COc1cccc(-n2cnnn2)c1 | inconclusive: 23.1 µM [cytotoxic, partial curve, poor fit] | – |
| O=C(Nc1ccccn1)C1CCN(S(=O)(=O)c2cccs2)CC1 | inconclusive: 29.1 µM [cytotoxic, single point] | – |

| Structure (SMILES) | Potency | activity change, negative = cytotoxicity |
| --- | --- | --- |
| CCOC1=C2CN(S(=O)(=O)c3ccc(C)cc3)C(c3ccc(CC)cc3)CC2n2c(=O)n(-c3ccccc3)c(=O)n2C1 (stereo unspecified) | – | inactive: -15.2% |
| Cc1cccc(OCCSc2nc3ccccc3n2CC(=O)N2CCCCC2)c1C | – | inactive: 5.3% |
| COc1ccc(C2=Nn3c(nnc3-c3ccco3)SC2)cc1OC | inconclusive: 23.1 µM [cytotoxic, single point] | – |
| CCSc1ccccc1C(=O)NCc1ccc(OC)cc1 | active: 20.6 µM | – |
| N#Cc1cccnc1N1CCN(C(=O)c2[nH]c(C(F)(F)F)nc2-c2ccccc2)CC1 | – | inactive: 12.9% |
| COC(=O)c1ccc2nc(C)cc(Nc3ccccc3C)c2c1 | – | inactive: -26.2% |
| CNC(=S)N/N=C1\C(=O)c2cccc3cccc1c23 | inconclusive: 18.4 µM [cytotoxic, single point] | – |
| O=C(CSc1nnnn1C1CC1)N1CCN(Cc2ccccc2F)CC1 | inconclusive: 16.4 µM [cytotoxic, partial curve] | – |
| N#Cc1nc(COc2ccccc2Cl)oc1N1CCCC1 | inconclusive: 29.1 µM [cytotoxic, single point] | – |
| O=C(CNS(=O)(=O)c1cccs1)NCCc1ccc(Cl)cc1 | – | inactive: -18.2% |
| Cc1cccc(N2CN(Cc3cccnc3)CNC2=S)c1 | inconclusive: 29.1 µM [rising, single point] | – |
| CC(=O)Nc1nonc1-c1nnc(SCC(=O)Nc2ccc(F)cc2F)n1-c1ccccc1 | – | inactive: 25.6% |
| COc1ccccc1NC(=O)c1oc2ccc(C)cc2c1C | – | inactive: -12.8% |
| COc1ccc(OC)c(NC(=O)CCNS(=O)(=O)c2ccc3[nH]c(=O)oc3c2)c1 | inconclusive: 9.2 µM [rising, single point] | – |
| CC1=CSC2=NC(=O)/C(=C\c3cccn3-c3ccccc3)C(=N)N12 | inconclusive: 11.6 µM [cytotoxic, partial curve, poor fit] | – |
| CCCCC(=O)NC(c1cccs1)c1cc(Cl)c2cccnc2c1O (stereo unspecified) | inconclusive: 0.651 µM [cytotoxic, full curve, poor fit] | – |
| COc1ccc(C2=NN(c3nc4ccccc4s3)C(=O)C2)cc1 | inconclusive: 18.4 µM [cytotoxic, single point] | – |
| O=C(Nc1ccc2c(c1)CCC2)c1ncoc1-c1ccccc1F | inconclusive: 2.06 µM [rising, full curve, poor fit] | – |
| O=C(C=Cc1ccccc1)NCCNC(=O)C=Cc1ccccc1 | inconclusive: 9.2 µM [cytotoxic, partial curve] | – |
| COc1ccc(C(=O)N2CCCCC2c2cc(C(=O)NCc3ccc(F)cc3)no2)cc1 (stereo unspecified) | – | inactive: -9.78% |
| Cc1ccc2oc(-c3ccco3)nc2c1 | inconclusive: 16.4 µM [rising, partial curve, poor fit] | – |
| CCOC(=O)N1CCN(S(=O)(=O)N2CCCC(C(=O)NCc3cc(OC)ccc3OC)C2)CC1 (stereo unspecified) | inconclusive: 32.6 µM [rising, single point] | – |

| Structure (SMILES) | Potency | activity change, negative = cytotoxicity |
| --- | --- | --- |
| CC(C(=O)Nc1ccc(Cl)cc1Cl)N1C(=O)NC2(CCCC2)C1=O (stereo unspecified) | inconclusive: 14.6 µM [cytotoxic, partial curve, poor fit] | – |
| O=S(=O)(Nc1cc(Cl)ccc1-n1cncn1)c1ccccc1Cl | inconclusive: 20.6 µM [cytotoxic, partial curve] | – |
| Cc1ccccc1NC(=O)C(C)N1C(=O)c2ccccc2C1=O (stereo unspecified) | inconclusive: 0.231 µM [rising, full curve, poor fit] | – |
| COc1ccc(NC(=O)C2CCCN(CCCc3ccccc3)C2)cc1OCC(C)C (stereo unspecified) | inconclusive: 29.1 µM [cytotoxic, single point] | – |
| CCn1ccc2cc(S(=O)(=O)N3CCCN(C(=O)Nc4ccccc4OC)CC3)ccc21 | inconclusive: 5.17 µM [cytotoxic, full curve] | – |
| Cc1ccsc1/C=N/NC(=O)c1cccc(S(=O)(=O)Nc2ccccc2Cl)c1 | – | inactive: -29% |
| COc1cccc(N2CC(C(=O)Nc3nnc(SCC(=O)NCc4ccco4)s3)CC2=O)c1 (stereo unspecified) | inconclusive: 29.1 µM [rising, single point] | – |
| COc1ccccc1C(=O)NC(=O)COC(=O)c1cnc(C)cn1 | inconclusive: 29.1 µM [rising, single point] | – |
| Nc1c(Br)cc(Br)c2c1-c1ccc([N+](=O)[O-])cc1C2 | inconclusive: 23.1 µM [cytotoxic, single point] | – |
| CCCCNC(=O)N1CCCC(C(=O)c2cc(C)c(OC)c(C)c2)C1 (stereo unspecified) | inconclusive: 14.6 µM [cytotoxic, single point] | – |
| CC(C)Sc1nc2c(c(=O)n(C)c(=O)n2C)n1Cc1ccc(Cl)cc1 | inconclusive: 29.1 µM [cytotoxic, single point] | – |
| C=CCn1c(SCc2nc3cc(C(F)(F)F)ccc3c(=O)[nH]2)nc2sc(CC)cc2c1=O | inconclusive: 8.2 µM [cytotoxic, partial curve] | – |
| O=C(Nc1cccc(NC(=O)c2ccc3c(c2)OCO3)c1)c1ccccc1 | inconclusive: 23.1 µM [cytotoxic, single point] | – |
| O=C(c1ccc(S(=O)(=O)Nc2ccccc2F)cc1)N1CCN(c2ccccc2O)CC1 | inconclusive: 29.1 µM [cytotoxic, single point] | – |
| O=C(c1[nH]c(C(F)(F)F)nc1-c1ccccc1)N1CCN(c2ccccn2)CC1 | inconclusive: 29.1 µM [cytotoxic, single point] | – |
| Cc1cccc(NC(=O)C2CCCN2C(=O)OCC(C)C)c1 (stereo unspecified) | inconclusive: 16.4 µM [cytotoxic, partial curve] | – |
| C[C@@H]1CN([C@H](C)CO)S(=O)(=O)c2ccc(C#Cc3ccccc3F)cc2O[C@H]1CN(C)C(=O)c1ccc2c(c1)OCO2 | inconclusive: 16.4 µM [cytotoxic, single point] | – |
| Cc1cc(C(=O)N2CCCC(N3CCN(c4ccc(F)cc4)CC3)C2)c(C)o1 (stereo unspecified) | inconclusive: 1.84 µM [cytotoxic, full curve] | – |
| Clc1ccc2c(c1)C(N1CCNCC1)Cc1ccccc1S2 (stereo unspecified) | active: 20.6 µM | – |
| Cc1cc(=O)oc2cc(O)cc(OCc3ccccc3)c12 | active: 14.6 µM | – |
| Cc1cc(C(=O)N/N=C/c2ccc([N+](=O)[O-])cc2)c(C)o1 | inconclusive: 29.1 µM [cytotoxic, single point] | – |
| CCN1CCC(N(Cc2ccc3c(c2)OCO3)C(=O)Nc2cc(Cl)ccc2C(=O)OC)CC1 | inconclusive: 29.1 µM [cytotoxic, single point] | – |

Of the compounds above, seven have a furan ring, fused or not:

| Structure (SMILES) | Potency | activity change, negative = cytotoxicity |
| --- | --- | --- |
| O=C(Cn1ncc2c(=O)oc3ccccc3c21)N1CCN(C(=O)c2ccco2)CC1 | inconclusive: 13 µM [rising, partial curve, poor fit] | – |
| COc1ccc(C2=Nn3c(nnc3-c3ccco3)SC2)cc1OC | inconclusive: 23.1 µM [cytotoxic, single point] | – |
| COc1ccccc1NC(=O)c1oc2ccc(C)cc2c1C | – | inactive: -12.8% |
| Cc1ccc2oc(-c3ccco3)nc2c1 | inconclusive: 16.4 µM [rising, partial curve, poor fit] | – |
| COc1cccc(N2CC(C(=O)Nc3nnc(SCC(=O)NCc4ccco4)s3)CC2=O)c1 (stereo unspecified) | inconclusive: 29.1 µM [rising, single point] | – |
| Cc1cc(C(=O)N2CCCC(N3CCN(c4ccc(F)cc4)CC3)C2)c(C)o1 (stereo unspecified) | inconclusive: 1.84 µM [cytotoxic, full curve] | – |
| Cc1cc(C(=O)N/N=C/c2ccc([N+](=O)[O-])cc2)c(C)o1 | inconclusive: 29.1 µM [cytotoxic, single point] | – |

Retrieved one by one from the list above, 2 records:

| Structure (SMILES) | Potency | activity change, negative = cytotoxicity |
| --- | --- | --- |
| O=C(c1ccc(S(=O)(=O)Nc2ccccc2F)cc1)N1CCN(c2ccccc2O)CC1 | inconclusive: 29.1 µM [cytotoxic, single point] | – |
| CCCCNC(=O)N1CCCC(C(=O)c2cc(C)c(OC)c(C)c2)C1 (stereo unspecified) | inconclusive: 14.6 µM [cytotoxic, single point] | – |
